Source: the supplement of paper PMC10849652
Some of the results follow.

Sequences of proteins named here, by UniProt entry; tags and fusion partners are left off. A change or cut given only in a name is not applied to a line headed by its entry.
UniProt P82909: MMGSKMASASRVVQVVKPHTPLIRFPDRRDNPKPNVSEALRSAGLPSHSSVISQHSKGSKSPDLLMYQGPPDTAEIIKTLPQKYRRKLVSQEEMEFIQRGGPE
UniProt P26038, whole entry, looked up: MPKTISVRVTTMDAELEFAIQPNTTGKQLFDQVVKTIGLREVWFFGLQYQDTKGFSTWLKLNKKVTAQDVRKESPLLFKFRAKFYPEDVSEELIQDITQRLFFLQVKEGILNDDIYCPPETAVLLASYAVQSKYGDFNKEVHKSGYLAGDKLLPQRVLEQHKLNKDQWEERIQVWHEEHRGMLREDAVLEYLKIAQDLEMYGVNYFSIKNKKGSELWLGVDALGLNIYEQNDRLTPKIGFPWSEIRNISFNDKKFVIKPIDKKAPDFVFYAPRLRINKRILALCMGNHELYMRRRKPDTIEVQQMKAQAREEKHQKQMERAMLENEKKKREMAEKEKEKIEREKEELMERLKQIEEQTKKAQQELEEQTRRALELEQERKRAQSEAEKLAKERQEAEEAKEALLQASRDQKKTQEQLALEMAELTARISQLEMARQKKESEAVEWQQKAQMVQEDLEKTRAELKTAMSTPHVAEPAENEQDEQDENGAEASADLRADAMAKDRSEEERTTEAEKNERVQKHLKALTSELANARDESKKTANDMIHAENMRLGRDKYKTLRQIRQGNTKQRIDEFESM
UniProt Q99707: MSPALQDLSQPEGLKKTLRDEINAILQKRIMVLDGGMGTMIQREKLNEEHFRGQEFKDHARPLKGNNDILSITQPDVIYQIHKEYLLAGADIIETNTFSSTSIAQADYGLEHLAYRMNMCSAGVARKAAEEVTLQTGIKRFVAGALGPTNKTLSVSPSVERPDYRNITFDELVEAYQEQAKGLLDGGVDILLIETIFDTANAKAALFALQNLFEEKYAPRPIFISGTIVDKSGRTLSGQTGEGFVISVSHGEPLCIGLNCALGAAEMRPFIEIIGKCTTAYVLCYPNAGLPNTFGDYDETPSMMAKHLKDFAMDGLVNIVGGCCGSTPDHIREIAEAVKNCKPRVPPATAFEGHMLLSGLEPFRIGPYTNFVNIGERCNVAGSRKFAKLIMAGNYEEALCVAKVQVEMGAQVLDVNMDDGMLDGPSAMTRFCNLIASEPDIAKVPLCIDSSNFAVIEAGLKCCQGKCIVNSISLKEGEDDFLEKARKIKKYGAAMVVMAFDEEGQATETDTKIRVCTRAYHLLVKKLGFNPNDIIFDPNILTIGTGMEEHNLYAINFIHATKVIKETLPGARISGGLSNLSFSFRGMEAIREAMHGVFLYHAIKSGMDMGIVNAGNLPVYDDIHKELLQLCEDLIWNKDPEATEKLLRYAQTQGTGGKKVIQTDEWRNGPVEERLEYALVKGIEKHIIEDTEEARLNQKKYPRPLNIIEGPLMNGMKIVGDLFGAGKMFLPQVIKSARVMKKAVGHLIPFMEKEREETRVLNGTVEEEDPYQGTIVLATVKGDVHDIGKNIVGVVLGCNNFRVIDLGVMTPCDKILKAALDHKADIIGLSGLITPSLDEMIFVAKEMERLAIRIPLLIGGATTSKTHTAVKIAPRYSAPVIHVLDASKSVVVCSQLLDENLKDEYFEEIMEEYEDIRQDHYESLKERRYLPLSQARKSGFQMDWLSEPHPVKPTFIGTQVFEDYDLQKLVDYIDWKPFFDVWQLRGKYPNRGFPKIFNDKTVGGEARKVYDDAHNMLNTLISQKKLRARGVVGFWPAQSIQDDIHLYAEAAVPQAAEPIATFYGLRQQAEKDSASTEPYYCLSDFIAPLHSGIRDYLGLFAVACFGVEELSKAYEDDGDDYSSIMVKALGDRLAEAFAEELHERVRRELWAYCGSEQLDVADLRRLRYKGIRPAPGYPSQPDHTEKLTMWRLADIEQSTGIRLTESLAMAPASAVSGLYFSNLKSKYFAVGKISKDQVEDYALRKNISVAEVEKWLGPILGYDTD
UniProt P13995: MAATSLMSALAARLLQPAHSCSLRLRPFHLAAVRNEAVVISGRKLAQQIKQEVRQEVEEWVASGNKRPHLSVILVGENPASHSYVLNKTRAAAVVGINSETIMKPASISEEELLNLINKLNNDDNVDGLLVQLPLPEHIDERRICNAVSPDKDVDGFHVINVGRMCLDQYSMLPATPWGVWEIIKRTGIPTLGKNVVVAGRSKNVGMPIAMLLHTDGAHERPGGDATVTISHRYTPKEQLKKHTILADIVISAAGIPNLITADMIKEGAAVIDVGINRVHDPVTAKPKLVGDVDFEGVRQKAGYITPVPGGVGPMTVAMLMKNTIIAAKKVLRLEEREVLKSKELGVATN
UniProt Q6P444: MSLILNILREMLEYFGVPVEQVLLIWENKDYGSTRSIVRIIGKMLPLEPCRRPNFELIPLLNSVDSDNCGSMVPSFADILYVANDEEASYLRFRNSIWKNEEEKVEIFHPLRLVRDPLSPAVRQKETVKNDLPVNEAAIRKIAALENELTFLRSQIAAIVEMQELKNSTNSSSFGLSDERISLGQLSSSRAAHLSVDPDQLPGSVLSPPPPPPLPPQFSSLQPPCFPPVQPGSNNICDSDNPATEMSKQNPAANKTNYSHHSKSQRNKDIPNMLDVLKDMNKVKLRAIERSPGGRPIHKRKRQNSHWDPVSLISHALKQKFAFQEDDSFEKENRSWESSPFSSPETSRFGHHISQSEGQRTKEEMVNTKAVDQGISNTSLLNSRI
UniProt P00846: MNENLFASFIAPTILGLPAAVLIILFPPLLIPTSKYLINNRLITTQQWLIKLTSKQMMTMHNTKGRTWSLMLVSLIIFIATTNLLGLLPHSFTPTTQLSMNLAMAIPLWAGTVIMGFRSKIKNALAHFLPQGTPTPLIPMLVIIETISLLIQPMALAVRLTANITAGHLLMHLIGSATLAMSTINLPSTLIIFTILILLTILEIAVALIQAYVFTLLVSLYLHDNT
UniProt O94776: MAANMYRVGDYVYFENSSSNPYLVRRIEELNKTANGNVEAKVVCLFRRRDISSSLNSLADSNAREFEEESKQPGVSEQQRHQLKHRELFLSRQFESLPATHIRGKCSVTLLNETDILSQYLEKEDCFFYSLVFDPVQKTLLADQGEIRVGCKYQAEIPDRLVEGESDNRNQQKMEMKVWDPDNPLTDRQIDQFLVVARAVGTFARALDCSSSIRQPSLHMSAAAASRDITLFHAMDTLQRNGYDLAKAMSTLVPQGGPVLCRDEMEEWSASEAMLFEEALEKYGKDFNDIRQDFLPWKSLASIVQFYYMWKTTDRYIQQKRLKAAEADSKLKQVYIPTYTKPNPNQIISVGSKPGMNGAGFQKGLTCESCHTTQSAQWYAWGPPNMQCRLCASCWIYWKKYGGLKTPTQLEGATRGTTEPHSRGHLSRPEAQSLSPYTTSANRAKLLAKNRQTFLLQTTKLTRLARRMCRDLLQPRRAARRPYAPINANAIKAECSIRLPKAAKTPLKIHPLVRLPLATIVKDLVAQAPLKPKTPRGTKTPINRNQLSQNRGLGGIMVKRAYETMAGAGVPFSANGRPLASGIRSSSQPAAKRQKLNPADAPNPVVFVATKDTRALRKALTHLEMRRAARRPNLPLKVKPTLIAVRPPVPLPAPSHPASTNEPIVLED
UniProt Q9NZJ7, whole entry, looked up: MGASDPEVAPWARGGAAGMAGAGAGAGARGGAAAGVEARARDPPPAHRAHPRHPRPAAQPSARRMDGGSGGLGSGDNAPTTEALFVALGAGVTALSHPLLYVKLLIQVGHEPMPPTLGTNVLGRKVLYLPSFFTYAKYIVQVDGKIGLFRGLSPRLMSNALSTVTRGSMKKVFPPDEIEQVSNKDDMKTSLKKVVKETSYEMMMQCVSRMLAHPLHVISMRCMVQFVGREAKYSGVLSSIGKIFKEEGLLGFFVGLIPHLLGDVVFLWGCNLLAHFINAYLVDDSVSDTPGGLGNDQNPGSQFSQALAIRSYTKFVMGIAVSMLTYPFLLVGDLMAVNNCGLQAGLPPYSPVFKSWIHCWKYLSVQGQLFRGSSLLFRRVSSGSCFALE
UniProt Q13505: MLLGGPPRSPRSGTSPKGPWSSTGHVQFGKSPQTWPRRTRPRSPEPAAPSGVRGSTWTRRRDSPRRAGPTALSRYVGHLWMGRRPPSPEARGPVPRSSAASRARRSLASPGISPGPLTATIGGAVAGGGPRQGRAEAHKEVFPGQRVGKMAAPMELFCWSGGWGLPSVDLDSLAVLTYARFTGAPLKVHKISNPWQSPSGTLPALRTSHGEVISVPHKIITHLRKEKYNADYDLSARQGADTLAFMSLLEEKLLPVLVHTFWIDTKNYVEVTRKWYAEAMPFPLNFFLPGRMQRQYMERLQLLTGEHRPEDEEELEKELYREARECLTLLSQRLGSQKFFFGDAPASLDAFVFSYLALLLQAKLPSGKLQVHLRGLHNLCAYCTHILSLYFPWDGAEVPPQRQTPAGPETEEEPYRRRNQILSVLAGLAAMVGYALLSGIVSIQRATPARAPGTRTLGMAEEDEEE
UniProt P03886, whole entry, looked up: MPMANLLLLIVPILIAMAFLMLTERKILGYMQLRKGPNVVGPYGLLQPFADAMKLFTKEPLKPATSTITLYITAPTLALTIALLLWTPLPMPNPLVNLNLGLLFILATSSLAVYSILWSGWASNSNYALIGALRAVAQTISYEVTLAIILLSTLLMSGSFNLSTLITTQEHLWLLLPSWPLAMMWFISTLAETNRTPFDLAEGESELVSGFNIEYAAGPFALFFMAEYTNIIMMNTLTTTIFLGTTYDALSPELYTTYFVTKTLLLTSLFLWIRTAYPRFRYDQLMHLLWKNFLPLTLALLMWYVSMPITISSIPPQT
UniProt Q13496: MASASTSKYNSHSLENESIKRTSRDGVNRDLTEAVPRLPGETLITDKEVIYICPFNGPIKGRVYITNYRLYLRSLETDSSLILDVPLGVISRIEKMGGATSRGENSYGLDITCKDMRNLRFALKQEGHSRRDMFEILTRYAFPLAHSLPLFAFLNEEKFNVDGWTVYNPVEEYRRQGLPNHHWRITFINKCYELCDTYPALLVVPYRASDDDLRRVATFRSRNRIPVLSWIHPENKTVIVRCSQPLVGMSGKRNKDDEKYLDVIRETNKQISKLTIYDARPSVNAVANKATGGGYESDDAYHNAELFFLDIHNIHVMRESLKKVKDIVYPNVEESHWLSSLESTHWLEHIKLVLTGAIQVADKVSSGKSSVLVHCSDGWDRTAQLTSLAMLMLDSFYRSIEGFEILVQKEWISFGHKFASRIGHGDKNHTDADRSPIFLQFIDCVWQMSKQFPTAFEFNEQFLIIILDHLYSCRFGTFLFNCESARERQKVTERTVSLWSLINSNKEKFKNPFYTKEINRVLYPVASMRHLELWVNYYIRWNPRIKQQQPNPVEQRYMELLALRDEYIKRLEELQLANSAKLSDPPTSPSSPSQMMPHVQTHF
UniProt Q9Y3D2: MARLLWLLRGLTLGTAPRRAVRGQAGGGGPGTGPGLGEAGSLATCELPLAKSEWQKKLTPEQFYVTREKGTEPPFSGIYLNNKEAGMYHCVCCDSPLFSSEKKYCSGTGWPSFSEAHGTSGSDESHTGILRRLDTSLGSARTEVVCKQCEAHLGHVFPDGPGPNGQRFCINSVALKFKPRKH
UniProt Q13330: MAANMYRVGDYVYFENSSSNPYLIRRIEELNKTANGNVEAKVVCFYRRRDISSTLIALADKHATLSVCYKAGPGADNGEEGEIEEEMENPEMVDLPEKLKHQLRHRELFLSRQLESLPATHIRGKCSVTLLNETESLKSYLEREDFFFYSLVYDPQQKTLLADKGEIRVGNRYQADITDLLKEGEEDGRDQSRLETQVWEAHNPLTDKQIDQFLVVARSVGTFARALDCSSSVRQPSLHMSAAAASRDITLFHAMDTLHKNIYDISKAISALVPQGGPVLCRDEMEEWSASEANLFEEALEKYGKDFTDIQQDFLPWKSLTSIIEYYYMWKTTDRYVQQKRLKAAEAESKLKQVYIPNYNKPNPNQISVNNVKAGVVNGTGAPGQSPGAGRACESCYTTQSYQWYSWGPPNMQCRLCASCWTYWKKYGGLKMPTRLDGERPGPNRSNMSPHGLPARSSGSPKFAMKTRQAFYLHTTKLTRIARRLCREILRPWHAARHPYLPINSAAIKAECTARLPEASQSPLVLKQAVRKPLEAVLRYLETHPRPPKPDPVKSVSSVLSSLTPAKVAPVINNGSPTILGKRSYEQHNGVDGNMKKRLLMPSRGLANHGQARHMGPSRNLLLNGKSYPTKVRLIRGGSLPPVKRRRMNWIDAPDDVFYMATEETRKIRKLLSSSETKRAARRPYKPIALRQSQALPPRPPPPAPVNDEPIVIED
UniProt Q96DH6: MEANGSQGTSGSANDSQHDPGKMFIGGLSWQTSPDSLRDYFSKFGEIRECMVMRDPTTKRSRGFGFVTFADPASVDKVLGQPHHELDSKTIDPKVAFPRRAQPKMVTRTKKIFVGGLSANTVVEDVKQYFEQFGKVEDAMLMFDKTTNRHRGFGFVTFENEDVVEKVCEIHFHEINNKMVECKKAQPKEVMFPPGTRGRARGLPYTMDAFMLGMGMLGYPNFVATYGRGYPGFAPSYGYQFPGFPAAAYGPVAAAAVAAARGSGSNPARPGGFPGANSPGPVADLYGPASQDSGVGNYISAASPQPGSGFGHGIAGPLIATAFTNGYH

The targets below were run with CN1CCc2c(c3ccccc3n2Cc2ccc(C(=O)NO)cc2)C1 [Tubastatin A] (assay: log2 fold change, soluble protein after heating vs DMSO (PISA); higher = thermal stabilisation; K562 lysate, 10 uM; active = over 0.2 and 3.5 SD of the protein, either way, in both replicates (recomputed)).
Outline: (§1)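 Dounce homogenisation of K562 pellets in PBS pH 7.4 with 1 mM MgCl2 produced a crude extract, used at 1 mg/mL protein. Exposure to 10 μM compound lasted 30 min, and aliquots were then heated for 3 min across 48°C-58°C, pooled and brought to 0.5% NP-40 at 4°C. The supernatant after 21,000xg for 90 min was quantified by TMTpro 16plex LC-MS/MS with channel sums equalised. Duplicate values are given as log-two fold change in thermal stability relative to solvent controls.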

Target	log2 fold change
MRPS36 (UniProt P82909)	inactive: 0.087
MSN (UniProt P26038)	inactive: 0.041
MRPS28 (UniProt Q9Y2Q9)	inactive: 0.029
MTR (UniProt Q99707)	inactive: -0.069
MTHFD2 (UniProt P13995)	inactive: 0.004
MRPS31 (UniProt Q92665)	inactive: 0.002
MTFR2 (UniProt Q6P444)	inactive: -0.117
MRPL40 (UniProt Q9NQ50)	inactive: 0.048
MRPL54 (UniProt Q6P161)	inactive: -0.002
MRPL44 (UniProt Q9H9J2)	inactive: -0.012
MT-ATP6 (UniProt P00846)	inactive: -0.012
MT-CO1 (UniProt P00395)	inactive: 0.078
MRPL58 (UniProt Q14197)	inactive: -0.065
MTA2 (UniProt O94776)	inactive: -0.049
MTCH1 (UniProt Q9NZJ7)	inactive: 0.044
MTX1 (UniProt Q13505)	inactive: 0.057

What follows are targets tested with CNC(=O)C1=CC=CC=C1NC2=NC(=NC=C2Cl)NC3=C(C=C(C=C3)N4CCOCC4)OC in the same assay as above.
Outline: as §1

Target	log2 fold change
MRPL4 (UniProt Q9BYD3)	inactive: -0.028
MRPS9 (UniProt P82933)	inactive: 0.004
MTMR9 (UniProt Q96QG7)	inactive: 0.016
MRPL28 (UniProt Q13084)	inactive: -0.11
MRPL41 (UniProt Q8IXM3)	inactive: 0.038
MRPS22 (UniProt P82650)	inactive: -0.005
MRPL45 (UniProt Q9BRJ2)	inactive: 0.021
MRPS18A isoform 2 (UniProt Q9NVS2)	inactive: -0.156
MRPL50 (UniProt Q8N5N7)	inactive: 0.046
MTIF2 (UniProt P46199)	inactive: 0.006
MRS2 (UniProt Q9HD23)	inactive: 0.012
MT-ND1 (UniProt P03886)	inactive: 0.043
MRPS30 (UniProt Q9NP92)	inactive: -0.017
MTM1 (UniProt Q13496)	inactive: 0.027
MRPS18B (UniProt Q9Y676)	inactive: 0.052
MRPL32 (UniProt Q9BYC8)	inactive: 0.037
MRPS5 (UniProt P82675)	inactive: 0.036
MSH6 (UniProt P52701)	inactive: 0.009
MSRB2 (UniProt Q9Y3D2)	inactive: 0.014
MTA1 (UniProt Q13330)	inactive: 0.013

Target	log2 fold change
MSI2 (UniProt Q96DH6)	inactive: -0.04
MRPL9 (UniProt Q9BYD2)	inactive: 0.048
MRPS10 (UniProt P82664)	inactive: 0.027
MRPS36 (UniProt P82909)	inactive: -0.01
MSN (UniProt P26038)	inactive: -0.025
MRPS28 (UniProt Q9Y2Q9)	inactive: 0.028
MTR (UniProt Q99707)	inactive: -0.011
MTHFD2 (UniProt P13995)	inactive: -0.022
MRPS31 (UniProt Q92665)	inactive: -0.029
MTFR2 (UniProt Q6P444)	inactive: 0.034
MRPL40 (UniProt Q9NQ50)	inactive: 0.068
MRPL54 (UniProt Q6P161)	inactive: 0.033
MRPL44 (UniProt Q9H9J2)	inactive: 0.046
MT-ATP6 (UniProt P00846)	inactive: 0.002
MT-CO1 (UniProt P00395)	inactive: 0.102
MRPL58 (UniProt Q14197)	inactive: 0.027
MTA2 (UniProt O94776)	inactive: -0.002
MTCH1 (UniProt Q9NZJ7)	inactive: 0.063
MTX1 (UniProt Q13505)	inactive: 0.006

What follows are targets tested with CNC(=O)c1ccc(Nc2ncc(C(F)(F)F)c(NCc3nccnc3N(C)S(C)(=O)=O)n2)cc1 [defactinib] in the same assay as above.
Outline: as §1

Target	log2 fold change
MRPL4 (UniProt Q9BYD3)	inactive: 0.036
MRPS9 (UniProt P82933)	inactive: 0.008
MTMR9 (UniProt Q96QG7)	inactive: 0.037
MRPL28 (UniProt Q13084)	inactive: 0.039
MRPL41 (UniProt Q8IXM3)	inactive: 0.038
MRPS22 (UniProt P82650)	inactive: 0.003
MRPL45 (UniProt Q9BRJ2)	inactive: -0.022
MRPS18A isoform 2 (UniProt Q9NVS2)	inactive: -0.024
MRPL50 (UniProt Q8N5N7)	inactive: 0.111
MTIF2 (UniProt P46199)	inactive: 0.068
MRS2 (UniProt Q9HD23)	inactive: -0.013
MT-ND1 (UniProt P03886)	inactive: 0.081
MRPS30 (UniProt Q9NP92)	inactive: 0.162
MTM1 (UniProt Q13496)	inactive: -0.007
MRPS18B (UniProt Q9Y676)	inactive: 0.028
MRPL32 (UniProt Q9BYC8)	inactive: 0.006
MRPS5 (UniProt P82675)	inactive: 0.089
MSH6 (UniProt P52701)	inactive: 0.012
MSRB2 (UniProt Q9Y3D2)	inactive: 0.035
MTA1 (UniProt Q13330)	inactive: 0.008

Target	log2 fold change
MSI2 (UniProt Q96DH6)	inactive: 0.076
MRPL9 (UniProt Q9BYD2)	inactive: 0.035
MRPS10 (UniProt P82664)	inactive: -0.008
MRPS36 (UniProt P82909)	inactive: 0.027
MSN (UniProt P26038)	inactive: -0.019
MRPS28 (UniProt Q9Y2Q9)	inactive: 0.015
MTR (UniProt Q99707)	inactive: 0.026
MTHFD2 (UniProt P13995)	inactive: 0.041
MRPS31 (UniProt Q92665)	inactive: 0.024
MTFR2 (UniProt Q6P444)	inactive: 0.01
MRPL40 (UniProt Q9NQ50)	inactive: 0.069
MRPL54 (UniProt Q6P161)	inactive: 0.004
MRPL44 (UniProt Q9H9J2)	inactive: 0.019
MT-ATP6 (UniProt P00846)	inactive: 0.055
MT-CO1 (UniProt P00395)	inactive: -0.001
MRPL58 (UniProt Q14197)	inactive: -0.045
MTA2 (UniProt O94776)	inactive: 0.016
MTCH1 (UniProt Q9NZJ7)	inactive: -0.031
MTX1 (UniProt Q13505)	inactive: -0.048
